Test results published in paper PMC9262611.
No constants are given. Whether binding was seen depends on the method and setting. Binding calls can cover weak binding; strength is not graded here. Tags and fused reporters may be left off the sequences shown. For some assays here: In cells and extracts the contact can be indirect.

Assays:
[1] = target: AtNusG:YFP^N (Arabidopsis thaliana); experiment: split reporter; BiFC with split YFP (pUC-SPYNE, pUC-SPYCE) in Arabidopsis protoplasts, confocal microscopy
[2] = target: AtNusG:YFP^C (Arabidopsis thaliana); experiment: as above
[3] = target: MBP:AtNusG (AtNusG^106-333) (Arabidopsis thaliana) (UniProt F4IZV4); experiment: pull-down; MBP:AtNusG or empty MBP held on MBP beads, PAP9:His added overnight at 4°C, 20 mM Tris-HCl pH 7.0, 200 mM NaCl; immunoblot with anti-His-tag antibody; both purified
[4] = target: AtNusG:MYC (Nicotiana benthamiana) (Arabidopsis thaliana); experiment: co-IP; PAP9:FLAG and AtNusG:MYC coproduced in N. benthamiana leaves; anti-c-MYC magnetic beads, 4°C, 4 h; immunoblot with anti-FLAG

Row | Binder | binding [1] | other results
1 | FSD2/PAP9:YFP^C (protein, UniProt Q9LU64 47-305) GVITAGFELKPPPYPLDALEPHMSRETLDYHWGKHHKTYVENLNKQILGTDLDALSLEEVVLLSYNKGNMLPAFNNAAQAWNHEFFWESIQPGGGGKPTGELLRLIERDFGSFEEFLERFKSAAASNFGSGWTWLAYKANRLDVANAVNPLPKEEDKKLVIVKTPNAVNPLVWDYSPLLTIDTWEHAYYLDFENRRAEYINTFMEKLVSWETVSTRLESAIARAVQREQEGTETEDEENPDDEVPEVYLDSDIDVSEVD | binds | 
2 | FSD2/PAP9:YFP^N (protein, UniProt Q9LU64 47-305) GVITAGFELKPPPYPLDALEPHMSRETLDYHWGKHHKTYVENLNKQILGTDLDALSLEEVVLLSYNKGNMLPAFNNAAQAWNHEFFWESIQPGGGGKPTGELLRLIERDFGSFEEFLERFKSAAASNFGSGWTWLAYKANRLDVANAVNPLPKEEDKKLVIVKTPNAVNPLVWDYSPLLTIDTWEHAYYLDFENRRAEYINTFMEKLVSWETVSTRLESAIARAVQREQEGTETEDEENPDDEVPEVYLDSDIDVSEVD |  | binding [2]: binds
3 | PAP9:His (protein, UniProt Q9LU64 47-305) GVITAGFELKPPPYPLDALEPHMSRETLDYHWGKHHKTYVENLNKQILGTDLDALSLEEVVLLSYNKGNMLPAFNNAAQAWNHEFFWESIQPGGGGKPTGELLRLIERDFGSFEEFLERFKSAAASNFGSGWTWLAYKANRLDVANAVNPLPKEEDKKLVIVKTPNAVNPLVWDYSPLLTIDTWEHAYYLDFENRRAEYINTFMEKLVSWETVSTRLESAIARAVQREQEGTETEDEENPDDEVPEVYLDSDIDVSEVD |  | binding [3]: binds
4 | PAP9:FLAG (protein, UniProt Q9LU64 47-305) GVITAGFELKPPPYPLDALEPHMSRETLDYHWGKHHKTYVENLNKQILGTDLDALSLEEVVLLSYNKGNMLPAFNNAAQAWNHEFFWESIQPGGGGKPTGELLRLIERDFGSFEEFLERFKSAAASNFGSGWTWLAYKANRLDVANAVNPLPKEEDKKLVIVKTPNAVNPLVWDYSPLLTIDTWEHAYYLDFENRRAEYINTFMEKLVSWETVSTRLESAIARAVQREQEGTETEDEENPDDEVPEVYLDSDIDVSEVD |  | binding [4]: binds
5 | PRPS10:YFP^N (protein, UniProt Q9LK61 57-191) AVPDTLDPTPEILDEPASEVPSSSSISVDADKMAPKQKIRIKLRSYWVPLIEDSCKQILDAARNTNAKTMGPVPLPTKKRIYCVLKSPHVHKDARFHFEIRTHQRMIDILYPTAQTIDSLMQLDLPAGVDVEVKL |  | binding [2]: binds
6 | PRPS10:YFP^C (protein, UniProt Q9LK61 57-191) AVPDTLDPTPEILDEPASEVPSSSSISVDADKMAPKQKIRIKLRSYWVPLIEDSCKQILDAARNTNAKTMGPVPLPTKKRIYCVLKSPHVHKDARFHFEIRTHQRMIDILYPTAQTIDSLMQLDLPAGVDVEVKL | binds | 
7 | PAP5:YFP^C (protein, UniProt F4IHY7 31-527) VKCGFPLKTLHAGITSRDRSLRHCIKCKKEDGDGDVSEGSKKSEEGFEYVTVERHPYHSYMDSTSGKLEPASGARASIPGEDYWPEGTSSRVRAARAPQPAGESSSFPSYGKNPGSRRKKNRKATEENVTVETNDEVSDSEDSSEEEENDSSDGFVTYKNEFEREEEETGFELDKKLGRPHPFIDPTKKKQIEKTLTSDESWWNWRKPEKEQWSRWQRRRPDVETVFLKAMAETGQVKLYGEEPTLTETSLYRARRHLFKEERLQAERERLAKEGPMAFYSEWVKAWKRDTSREAVQKHFEETGEDENTQLIEMFSHQTDREYRIMMGTDIRIKRDPLAMRMREDQIKQIWGGDPVYPTINYIQDPNAVMDFRGPDFHEPTPNMLSYLKENGKVISREMHEALLTKEKTEQLEVPDMDDAMAQAVDIGENDDDEDDADVEKDDEKVPRNWSVLKETPELRTAKPKPKKEGRMSLDEAVDDAENLTDFLMDFEEETDP | no binding | 
8 | PAP6:YFP^C (protein, UniProt Q9M394 39-471) ASINGSGITNGAAAETTSKPSRKGRKKKQTSTVIEKDNTETDPELNPELADYDDGIEFPYDDPPLVCCFGAVQKEFVPVVRVHDNPMHPDMYSQWKMLQWDPPEFGRAPGGPPSNVAISHVRLGGRAAFMGKVGEDDFGDELVLMMNQERVQTRAVKFDENSKTACTRVKIKFKDGKMMAETVKEPPEDSLFASELNLAVLKEARIFHFNSEVLTSPTMQSTLFTAIQWSKKFGGLIFFDLNLPLPLWRSRNETRKLIKKAWNEANIIEVSQQELEFLLDEDYYERRRNYTPQYFAEDFDQTKNRRDYYHYTPEEIKSLWHDKLKLLVVTDGTLRLHYYTPTFDGVVIGTEDVLITPFTCDRTGSGDAVVAGIMRKLTTCPEMFEDQDVMERQLRFAVAAGIIAQWTIGAVRGFPTESATQNLKEQVYVPSMW | no binding | 
9 | PAP7:YFP^C (protein, UniProt Q84JF5 63-483) ASEESSSSELETADPDFYKIGYVRSVRAYGVEFKEGPDGFGVYASKDIEPRRRARVIMEIPLELMITIRQKHPWMFFPDIVPIGHPIFDIINSTDPEIDWDIRLACLLLFSFDRDDHFWRLYGDFLPAADECSSLLLATEEDLAELQDPDLVSTIRQQQKRILDFWEKNWHSGVPLKIKRLAEDPERFIWAVSMAQTRCISMQTRVGALVQELNMMIPYADMLNHSFEPNCFLHWRPKDRMLEVMSNAGQDIKKGEEMTINYMPGQKNNMLMERYGFSTPVNPWDAIKFSGDSRIHLNSFLSVFNIYGLPEEYYHDSELSRGDTFVDGAVIAAARTLPTWSDIDLPPIPSAERKAVKELQDECRKMLAEYPTTAEQDQKLLDSMSEARTTFATAVKYRMHRKMFIGKIIKALDIYQERLLY | no binding | 
10 | PAP8:YFP^C (protein, UniProt Q9XI19 60-328) ADGGGADEYDMDDEEVEEVDNKKDYDVEYDPLAAAIAAAGGGGDGDIAFVQSKSFISTQGWDSDMVVDYRINEDEFHKLSLMDCDFFIRKPPDPDNDVYDFREMYVTPPDTDIYSIPRVLAPMPQKYIRCAMSDYGCYNVTEPPIDAPRDPLYKSEREISKVFLTKHYRNRRTNDPEFVLDLEEIYVIDSKTKSITRARVLVTVPGGRKRDRKDDLLVIRDNGTSFKIIHVGERDDPTTVIEREEWTKTREDMEKHLRKLRDFSVSNWF | no binding | 
11 | PAP10:YFP^C (protein, UniProt Q9M7X9 82-183) AQELQELVKGDRKVPLIVDFYATWCGPCILMAQELEMLAVEYESNAIIVKVDTDDEYEFARDMQVRGLPTLFFISPDPSKDAIRTEGLIPLQMMHDIIDNEM | no binding | 
